According to patent US7868135B2, “Compositions of lipopeptide antibiotic derivatives and methods of use thereof” (priority 2003, dated 2011):
Some results were stated once for a whole list of compounds, not compound by compound.

Test system: Staphylococcus aureus (SAU0017)
Test: Kill curve (bactericidal activity)
Assay type: cell-based
Details: Staphylococcus aureus and/or Enterococcus faecalis (not separated in the text); generally at concentrations within two (2) dilutions of the compound MIC
Procedure: Another measure of the antimicrobial properties of the lipopeptide derivative compounds of this disclosure includes kill curve measurements. Kill curve experiments generally involve exposure of microorganisms to varying concentrations (e.g., multiples of a compound's MIC) of a test compound. The microorganisms may be in culture at log phase of growth or may be in a particular host tissue (e.g., lung) for up to 24 hours before exposure to a test compound. At selected time points, a sample of each culture or tissue can be analyzed for a titre of viable microorganisms, which is generally gauged against the time required for a compound to inhibit growth or kill bacteria.
Kill curve experiments were performed with both Staphylococcus aureus (SAU0017) and Enterococcus faecalis (EFS0004) organisms grown to log phase, which were suspended in cation-adjusted Mueller-Hinton broth with additional 0.625 mM Ca^+2 to a concentration of 10^6 CFU/mL. The cultures were then exposed to varying concentrations (i.e., multiples of the MIC) of a lipopeptide derivative and incubated at about 37° C. At selected time points from about 0 hours to about 24 hours, a sample of each culture was analyzed for a titre of viable organisms (CFU/ml), which was compared against the time required for each compound to kill bacteria.

Structure (SMILES) | time to kill […] of bacteria
CCCCCCCCCCCCCCC(=O)NC(CC(=O)O)C(=O)NC1C(=O)N2CCCCC2C(=O)NC(C(C)C(=O)O)C(=O)NC(CC(=O)O)C(=O)NCC(=O)NC(CC(=O)O)C(=O)NCC(=O)NC(C(C)NC(=O)CN)C(=O)NC(C(C)C)C(=O)N2CCCC2C(=O)NC1C (centres unmarked) [Compound 3, C15-Amphomycin-9-Gly] | ≤ 6 h
CCCCCCCCCCCC(=O)Nc1ccc(C(=O)NC(CC(=O)O)C(=O)NC2C(=O)N3CCCCC3C(=O)NC(C(C)C(=O)O)C(=O)NC(CC(=O)O)C(=O)NCC(=O)NC(CC(=O)O)C(=O)NCC(=O)NC(C(C)NC(=O)CCN)C(=O)NC(C(C)C)C(=O)N3CCCC3C(=O)NC2C)cc1 (stereo not drawn) [Compound 280, C12-PABA-Amphomycin-9-(β-Ala)] | ≤ 6 h
